Source: article doi:10.1101/2021.02.07.430097
No constants are given. Whether binding was seen depends on the method and setting. For some of these results: A result given as binding can be weak or reduced; the word gives no strength. For some of these results: Sequences can lack the tags named with a protein. For some of these results: In cells and extracts the contact can be indirect. Each block holds one molecule with its values, some of them ahead of it.

Chains of the proteins cited; added tags and fusions are not shown. Lines headed by an entry give the natural chain unless they say otherwise; changes in a name come on top.
UniProt Q9UT61: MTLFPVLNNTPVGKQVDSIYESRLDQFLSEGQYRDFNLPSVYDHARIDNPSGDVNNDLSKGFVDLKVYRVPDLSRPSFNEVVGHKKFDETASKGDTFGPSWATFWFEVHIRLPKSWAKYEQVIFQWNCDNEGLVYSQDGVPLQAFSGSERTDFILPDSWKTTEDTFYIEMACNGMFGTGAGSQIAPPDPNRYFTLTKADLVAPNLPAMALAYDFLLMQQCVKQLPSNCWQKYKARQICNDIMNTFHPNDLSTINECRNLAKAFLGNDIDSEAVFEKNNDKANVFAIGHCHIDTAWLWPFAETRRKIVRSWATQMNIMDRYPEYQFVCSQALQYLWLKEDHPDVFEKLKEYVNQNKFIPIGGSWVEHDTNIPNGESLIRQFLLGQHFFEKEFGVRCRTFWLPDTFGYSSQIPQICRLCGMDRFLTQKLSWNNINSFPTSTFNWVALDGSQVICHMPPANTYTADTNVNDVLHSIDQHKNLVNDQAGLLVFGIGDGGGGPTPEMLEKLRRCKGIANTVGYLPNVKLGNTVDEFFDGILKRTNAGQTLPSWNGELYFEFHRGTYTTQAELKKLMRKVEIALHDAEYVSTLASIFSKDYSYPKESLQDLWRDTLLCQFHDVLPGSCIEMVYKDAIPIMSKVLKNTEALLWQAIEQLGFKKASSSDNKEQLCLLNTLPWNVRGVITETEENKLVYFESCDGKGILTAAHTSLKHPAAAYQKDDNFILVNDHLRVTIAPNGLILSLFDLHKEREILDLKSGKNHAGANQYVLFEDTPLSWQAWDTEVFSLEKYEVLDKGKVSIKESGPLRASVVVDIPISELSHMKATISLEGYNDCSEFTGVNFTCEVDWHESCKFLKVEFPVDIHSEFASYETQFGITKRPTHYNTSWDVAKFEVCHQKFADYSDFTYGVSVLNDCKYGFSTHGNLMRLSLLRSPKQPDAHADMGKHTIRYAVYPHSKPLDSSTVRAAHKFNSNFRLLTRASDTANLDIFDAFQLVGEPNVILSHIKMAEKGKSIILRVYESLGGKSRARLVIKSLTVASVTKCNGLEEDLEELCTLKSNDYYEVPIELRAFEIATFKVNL

How the values were obtained:
[1] = target: T1, Lap2-TAP (S. pombe) (UniProt O94544); test: co-IP
T1 sequence: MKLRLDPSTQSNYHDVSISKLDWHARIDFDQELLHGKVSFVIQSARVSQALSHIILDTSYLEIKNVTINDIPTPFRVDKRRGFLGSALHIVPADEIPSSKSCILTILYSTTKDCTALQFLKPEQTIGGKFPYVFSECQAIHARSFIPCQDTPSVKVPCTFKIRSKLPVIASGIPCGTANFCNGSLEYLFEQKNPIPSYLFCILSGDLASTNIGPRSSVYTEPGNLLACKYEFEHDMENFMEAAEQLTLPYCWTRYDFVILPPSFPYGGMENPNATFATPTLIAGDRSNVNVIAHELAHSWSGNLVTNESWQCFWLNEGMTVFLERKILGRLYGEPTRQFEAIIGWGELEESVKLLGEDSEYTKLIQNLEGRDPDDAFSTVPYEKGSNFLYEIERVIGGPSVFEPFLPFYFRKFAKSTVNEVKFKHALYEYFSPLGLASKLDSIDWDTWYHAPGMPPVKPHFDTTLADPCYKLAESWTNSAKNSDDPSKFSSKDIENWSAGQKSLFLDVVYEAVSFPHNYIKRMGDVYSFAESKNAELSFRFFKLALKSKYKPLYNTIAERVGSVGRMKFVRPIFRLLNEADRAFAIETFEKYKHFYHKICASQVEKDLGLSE

[2] = target: T2, GST-Nbr1(53-129) (S. pombe) (UniProt Q9P792); test: pull-down
T2 sequence: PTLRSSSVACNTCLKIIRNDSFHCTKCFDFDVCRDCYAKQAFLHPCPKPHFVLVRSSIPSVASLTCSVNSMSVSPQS

[3] = target: Ape4 (full length) of the Ape4-Nbr1 fusion protein (S. pombe); test: cryo-EM structure
[4] = target: Ams1 (full length) of the Ams1-Nbr1 fusion protein (S. pombe) (UniProt Q9UT61); test: cryo-EM structure
[5] = target: Ams1-mCherry (S. pombe) (UniProt Q9UT61); test: co-IP
[6] = target: Ape4-TAP (S. pombe); test: co-IP

- binding [1]: no binding
Molecule: Ams1-13Myc (from UniProt Q9UT61) (enzyme)

- binding [1]: binds
Molecule: Ape2 (endogenous) (S. pombe (endogenous in S. pombe)) (enzyme)

- binding [2]: binds
Molecule: Ams1-FFH (from UniProt Q9UT61) (enzyme)

- binding [1]: no binding
Molecule: Ape4 (endogenous) (S. pombe (endogenous in S. pombe)) (enzyme)

- binding [2]: binds
Molecule: Ape4-FFH (S. pombe) (enzyme)

- binding [3]: binds
B1: Nbr1(53-129) of the Ape4-Nbr1 fusion protein (domain or fragment, UniProt Q9P792 53-129)
chain: T2 sequence

- binding [4]: binds
B2: Nbr1(53-180) of the Ams1-Nbr1 fusion protein (domain or fragment, UniProt Q9P792 53-180)
chain: PTLRSSSVACNTCLKIIRNDSFHCTKCFDFDVCRDCYAKQAFLHPCPKPHFVLVRSSIPSVASLTCSVNSMSVSPQSNFMYAICDHCEQPIHNVRYKCSVCDDYDICESCLTDNSHSNTHAFVRITKA

- binding [5]: binds
B3: Endogenously TAP-tagged Nbr1 (protein, UniProt Q9P792 1-397)
chain: MLCNRTCPSSDCGILCNHSVPSFPPFHSSVANIHFTKENNLKSNIFEHNNNSPTLRSSSVACNTCLKIIRNDSFHCTKCFDFDVCRDCYAKQAFLHPCPKPHFVLVRSSIPSVASLTCSVNSMSVSPQSNFMYAICDHCEQPIHNVRYKCSVCDDYDICESCLTDNSHSNTHAFVRITKAYPHGLPSFHLFPQFLSAELFESASTVHRSVQCDNCLAHPIVGPRFHCLVCEDYDLCSSCVSHVHHDHHSMLRLTREISASPLHLSKPEKPKVLNFDFKLVEDSILPLELSPGCPFYKIWHIRNTSCQSWPSPLYVKFNGGDKLFPGDNPYSFPITSSVHPGEDVNFTVALKVPEKSNKEIFTAFFNICSDDGSVFHKSLCAFLRVPKSFSRISKSSF

- binding [5]: no binding
- binding [6]: no binding
B4: Lap2 (endogenous) (enzyme, UniProt O94544 1-612)
chain: T1 sequence
